Consider 1 compound from patent US7901867B2, “Sulphonium salt initiators” (BASF SE, priority 2005, dated 2011).

A short description of the data set: Yellowing of the cured coating, b* (CIE lab) value.

Turning to `COC(=O)c1ccccc1[S+](c1ccc(OC)cc1)c1ccc(C(C)C)cc1` (centres unmarked) [Example 2, (4-isopropyl-phenyl)-(2-methoxycarbonyl-phenyl)-(4-methoxyphenyl) sulfonium hexafluorophosphate], under “1% compound in epoxy/oxetane formulation of example 28 on white chipboard, 1×120 W/cm medium pressure mercury lamp, belt 20 m/min”, the “initial b* value (CIE lab) after the irradiation” value came out at 3.8. The “b* value (CIE lab) after 16 h of additional exposure” value (as initial value, then 16 h additional exposure to fluorescent tube (TLK40/05)) amounted to 4.4.
